# Library screen at single concentrations

The chains behind the UniProt entries cited, without tags or fusion partners. Residues count along the entry.
UniProt A4I591, 1-473: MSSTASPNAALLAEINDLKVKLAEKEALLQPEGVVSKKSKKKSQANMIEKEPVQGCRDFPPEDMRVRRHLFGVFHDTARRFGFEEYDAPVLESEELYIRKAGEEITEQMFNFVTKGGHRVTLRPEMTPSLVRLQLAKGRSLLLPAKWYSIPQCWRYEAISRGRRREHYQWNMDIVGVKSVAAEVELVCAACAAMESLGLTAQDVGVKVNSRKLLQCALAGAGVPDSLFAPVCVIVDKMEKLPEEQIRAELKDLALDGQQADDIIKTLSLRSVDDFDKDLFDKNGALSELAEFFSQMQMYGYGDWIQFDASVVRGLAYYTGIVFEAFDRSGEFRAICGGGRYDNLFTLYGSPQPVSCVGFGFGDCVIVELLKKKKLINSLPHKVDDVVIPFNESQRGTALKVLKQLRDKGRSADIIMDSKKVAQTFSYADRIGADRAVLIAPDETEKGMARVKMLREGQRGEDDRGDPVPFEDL
UniProt P9WFT3, whole entry: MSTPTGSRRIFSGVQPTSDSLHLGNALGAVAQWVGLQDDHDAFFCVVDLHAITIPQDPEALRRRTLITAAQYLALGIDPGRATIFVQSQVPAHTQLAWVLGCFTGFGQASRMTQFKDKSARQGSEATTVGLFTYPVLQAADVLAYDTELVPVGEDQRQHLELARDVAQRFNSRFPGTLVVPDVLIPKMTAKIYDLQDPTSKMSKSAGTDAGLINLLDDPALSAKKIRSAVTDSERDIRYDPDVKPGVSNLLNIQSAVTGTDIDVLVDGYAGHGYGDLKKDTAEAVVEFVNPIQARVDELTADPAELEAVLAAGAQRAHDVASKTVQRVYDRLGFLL
UniProt P9WNZ1, whole entry: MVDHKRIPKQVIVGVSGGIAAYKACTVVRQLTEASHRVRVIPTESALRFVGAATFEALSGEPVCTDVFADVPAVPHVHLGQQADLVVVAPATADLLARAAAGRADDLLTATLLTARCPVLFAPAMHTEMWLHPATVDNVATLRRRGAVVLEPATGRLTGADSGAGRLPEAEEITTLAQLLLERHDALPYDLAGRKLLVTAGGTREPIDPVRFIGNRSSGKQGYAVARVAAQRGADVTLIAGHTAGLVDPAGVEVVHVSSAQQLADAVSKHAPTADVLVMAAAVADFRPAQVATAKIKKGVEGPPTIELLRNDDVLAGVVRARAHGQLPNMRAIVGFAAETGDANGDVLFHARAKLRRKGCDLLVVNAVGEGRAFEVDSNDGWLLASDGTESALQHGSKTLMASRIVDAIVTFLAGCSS

Results are given as percent effect.
The controls that fix the scale are not given in the record; negative values are as filed.
The compounds are a random part of those screened.
A dash means the value is not listed here; it may have been measured.

LiHisRS: 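Enzyme assay of histidyl-tRNA synthetase; the read-out is not stated. Target: Histidine-tRNA ligase, Leishmania infantum (UniProt A4I591). Tested at 30 µM. Higher reads as stronger inhibition (inferred: compounds with an IC50 in retests scored well above the rest). The assay is labelled LdHisRS but filed under L. infantum. Of about 69,000 compounds tested this way, about 410 (0.6%) reached 50% or more in at least one test.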
MtTrpRS: 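Enzyme assay of tryptophanyl-tRNA synthetase; the read-out is not stated. Target: Tryptophan-tRNA ligase, Mycobacterium tuberculosis (UniProt P9WFT3). Compounds at 10 µM. Direction is not recorded; retested compounds ran higher, which suggests that high means inhibition. About 65,000 compounds were tested under these conditions; 0.098% (about 64) showed 50% or more at least once.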
Toxoplasma: 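Assay of Toxoplasma gondii numbers, read through their beta-galactosidase reporter with a colour substrate. Tested at 10 µM. Higher reads as fewer parasites (inferred from which compounds were picked for retests). About 67,000 compounds were tested under these conditions; 0.38% (about 260) showed 50% or more at least once.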
CoaBC: 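Enzyme assay of CoaBC with a phosphate dye (Biomol Green) read at 650 nm. Target: Coenzyme A biosynthesis protein CoaBC, Mycobacterium tuberculosis (UniProt P9WNZ1). Tested at 30 µM. Higher reads as stronger inhibition, judged from the few compounds that gave an IC50. Most strong results did not repeat in a second test. Size under these conditions: about 67,000 compounds, about 40 of them at 50% or above in at least one test.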

SMILES	LiHisRS	MtTrpRS	Toxoplasma	CoaBC
CCn1ccc(C(=O)N2CCCN(Cc3ccccc3F)CC2)cc1=O	20	-0.2469	-3.441	-2.451
CCN(CC)C(=O)CCCNC(=O)Cc1nc(-c2ccco2)oc1C	14.52	-4.471	-	0.615
[H][C@]12CCN(C(=O)C3CCOC3)C[C@@]1([H])OCCN(S(C)(=O)=O)C2 (stereo partly shown)	-	-	-18.83	-
CN(C)C(=O)c1ccc2c(c1)N(C)C(CC(=O)NCc1ccno1)CO2 (stereo not shown)	16.35	-0.5687	2.559	8.017
CCC(CC)C(O)CNC(=O)Nc1cccc(-c2nccn2C)c1 (stereo not shown)	-3.03	-3.232	-21.03	-0.1972
COCc1nnc(C(=O)N(C)Cc2cnc3ccccn23)o1	18.03	0.9449	8.221	0.2558
Cc1cc(N2CCC(CO)(CC3CCCCO3)CC2)nc2ccccc12 (stereo not shown)	15.83	-3.039	-23.73	6.335
COc1ccc(F)c(CN(CCCn2ccnc2)Cc2ccc(C)s2)c1.O=C(O)CC(O)(CC(=O)O)C(=O)O	-	-	53.53	-
O=c1c2sccc2ncn1CC(O)CN1CCOCC1 (stereo not shown)	4.167	-1.598	-2.781	4.808
Cc1csc(CNC(=O)NCC2(c3ccc4c(c3)OCO4)CC2)n1	20.88	0.3236	-3.124	0.241
Cc1nc(-c2ccc(C(=O)O)cc2)cc(C2CCN(C(C)C)C2)n1 (stereo not shown)	14.29	1.917	-3.338	-1.702
Cc1n[nH]c(C)c1C1COCCN1C(=O)c1ccccc1 (stereo not shown)	4.255	-2.301	-4.436	0.5181
CCn1ccnc1CN1CCCN(C(=O)Cc2csc(C)n2)CC1	10.26	-2.442	20.33	-7.775
CC(C)Nc1nc(C(=O)Nc2ccccn2)cs1	21.35	0.2427	-0.1325	-9.375
Cc1nc(CN2CCCC(N(C)Cc3cnc(C)s3)C2)no1 (stereo not shown)	1.653	-3.011	1.506	-1.512
COc1ccc(Cc2noc(-c3ccc(NC(C)CO)nc3)n2)cc1 (stereo not shown)	8	0.4515	16.27	0.2439
Cc1ccc(CNCCCNS(C)(=O)=O)c(Br)c1	15.52	-3.366	-1.41	-3.64
CCOc1ccc2[nH]c(=O)c(CN3CCC(O)CC3)cc2c1	24.76	1.587	2.022	0.4386
Cc1ccc(F)cc1NS(=O)(=O)c1cc2c(c(C(=O)O)c1)OCCO2	11.61	0.2201	-11.21	2.171
Cc1ccc(NC(C(N)=O)c2ccc(F)cc2)cc1 (stereo not shown)	18.58	5.322	3.696	0.2336
CC(C)CC(CCO)CNC(=O)N1CCOC2(CCCC2)C1 (stereo not shown)	-1.667	-3.786	3.837	1.276
CCOC(=O)CSc1nnc(C(N)CC(C)C)o1.Cl (stereo not shown)	-	-	0.6426	-
COCC(=O)N1CCn2c(COc3cccnc3)cnc2C1C.O=C(O)C(F)(F)F (stereo not shown)	-	-	84.28	-
O=C(NCCOc1ccc2c(c1)OCO2)C1CC(=O)N(C2CC2)C1 (stereo not shown)	11.61	0.2201	-16.4	1.149
Cc1nc(-c2cccc(N3CCC(NC4CCOCC4)CC3)c2)cs1	2.083	-3.767	-5.11	-2.885
CCC(C)Nc1ccc(-c2nc(-c3cccc(OC)c3OC)no2)cn1 (stereo not shown)	-34.38	-3.638	4.357	2.314
CCc1ccc(NS(=O)(=O)c2cc3c(c(C(=O)O)c2)OCCO3)cc1	7.826	-9.585	-1.431	2.163
CCOC(=O)N1CC(=O)N(Cc2ccc(OC)cc2)CC(O)C1 (stereo not shown)	16.33	-	-5.356	-2.663
COc1cc(-c2nccn2CCn2cccn2)cc2c1OCO2	-20.43	-1.308	0.4035	-8.025
Cc1ccn2cc(C(=O)N3CCCC3c3c(C)nn(C)c3C)nc2c1 (stereo not shown)	10.81	1.852	1.969	0
CN1CCOC(CNC(=O)C2(c3ccccc3)CCC2)C1 (stereo not shown)	10.62	-1.577	12.62	0.3444
Cn1nccc1C1CCN(CC(O)c2cccc(F)c2)CC1 (stereo not shown)	7.865	-2.596	-	4.113
O=C(O)c1cc2c(nc1O)CC(c1cccs1)CC2=O (stereo not shown)	9.709	-1.206	-5.14	8.21
CC(C)CNC(=O)[C@H]1CCS(=O)(=O)[C@@H]2CN(CC(C)C)C[C@H]12	4.167	-7.532	-	-10.86
O=C(O)C(F)(F)F.[H][C@@]12CN(CC)C[C@]1(C(=O)N(C)C)CCC21CCN(C(C)=O)CC1	-	-	-17.33	-
Cc1nn(C)c2c(NCc3cccnc3)nc(C3CC3)nc12	8.491	-1.574	-15.47	7.273
O=C(c1ccccc1OCC1CC1)N1CCCC1Cn1cccn1 (stereo not shown)	-1.653	0.08136	2.664	-3.672
CCC(=O)N1CCC2(CC1)C(=O)N(C)CCN2Cc1csc(C)n1	13.46	-	-	3.515
CC(NC1(CNS(C)(=O)=O)CCOCC1)c1ccccc1 (stereo not shown)	14.29	-4.4	-0.3157	3.415
Cc1ccc2cc(C(=O)N3CCN(C(=O)N(C)C)CC3)ccc2n1	5.128	-2.7	20.15	1.006
O=C(O)C(F)(F)F.O=C(O)C(F)(F)F.[H][C@]12CCN(c3cnn(C)c3)C(=O)[C@]1([H])CN(Cc1ccncc1)C2	-	-	2.722	-
Cl.Cl.NCC(=O)N1CCCC(c2ccnc(Nc3cnccn3)n2)C1 (stereo not shown)	-	-	-2.955	-
CC(=O)c1ccc(Nc2nc(N)nc3c2nc(C)n3C)cc1	-7.08	2.867	18.02	3.33
Cc1ccc(C)c(-n2ncc(C(=O)NCC3COC(C)(C)O3)c2N)c1 (stereo not shown)	19.8	-	-2.232	0.4854
COCCOCC(=O)N1C[C@@H]2CC[C@H](Oc3cccc(F)c3)[C@@H]2C1	-5.263	0.7536	-	5.596
CC(NC(=O)N1CCN(c2ccccc2O)CC1)c1nncn1C (stereo not shown)	15.52	-4.827	-7.369	1.044
CCc1nc2ccccc2n1C(CC)C(=O)N(C)Cc1nc(C)c[nH]1 (stereo not shown)	14.63	2.376	21.93	2.163
COc1cc(N2CCC(c3nccn3Cc3ccccn3)CC2)ncn1	13.7	3.577	14.89	-1.711
O=C(CNc1cc2c(cc1Br)OCCO2)NC1CCS(=O)(=O)C1 (stereo not shown)	15.52	2.319	20.77	-8.779
Cc1cc(C[C@@H]2CCC[C@H]2NCc2c[nH]nc2-c2ccccc2)on1.O=C(O)CC(O)(CC(=O)O)C(=O)O	-	-	0.4309	-
COC(=O)CC(c1cccnc1)c1oc(C)cc(=O)c1O (stereo not shown)	2.564	4.248	-3.122	1.272
[H][C@]12CN(Cc3cccc(F)c3F)C[C@]1([H])N(C1CCOCC1)C(=O)CO2	-	-	15.36	-
O=C(O)C(F)(F)F.[H][C@@]12CN(Cc3c[nH]cn3)C[C@]1([H])OCCN2c1cnccn1	-	-	2.996	-
[H][C@@]12CN(Cc3nccs3)C[C@]1([H])CN(C(=O)c1cscn1)C2	-	-	-1.467	-
CCC(NC(N)=O)c1ccccc1OCC(=O)N1CCCC1 (stereo not shown)	10.64	-3.044	-12.56	3.886
O=C(Nc1ccccc1Cl)N1CCN(CC2CC2)[C@@H]2CS(=O)(=O)C[C@@H]21	8.197	2.563	-	-2.512
CC(C)c1cc(NCC(O)CO)n2nccc2n1 (stereo not shown)	9.615	4.567	-1.269	6.183

Some entries from above, unchanged:

{"smiles": "CCOC(=O)N1CC(=O)N(Cc2ccc(OC)cc2)CC(O)C1", "stereo": "stereo not shown", "LiHisRS": 16.33, "Toxoplasma": -5.356, "CoaBC": -2.663}
{"smiles": "Cl.Cl.NCC(=O)N1CCCC(c2ccnc(Nc3cnccn3)n2)C1", "stereo": "stereo not shown", "Toxoplasma": -2.955}
{"smiles": "CCC(CC)C(O)CNC(=O)Nc1cccc(-c2nccn2C)c1", "stereo": "stereo not shown", "LiHisRS": -3.03, "MtTrpRS": -3.232, "Toxoplasma": -21.03, "CoaBC": -0.1972}
{"smiles": "[H][C@]12CN(Cc3cccc(F)c3F)C[C@]1([H])N(C1CCOCC1)C(=O)CO2", "Toxoplasma": 15.36}

Source: ChEMBL document CHEMBL3988442, “University of Dundee, Small-Polar-MMV Screening Library” (2021).